Experimental data taken from PubChem BioAssay AID2685 (National Center for Advancing Translational Sciences (NCATS), 2010).
Some of the results follow. These are further read-outs of the screen, such as a control signal, another cell line or another target. No call is given for them. The list favours compounds with an active or inconclusive main result. The note in brackets gives the kind of curve behind each potency; many fits are weak.

Assay: qHTS Assay for Lipid Storage Modulators in Drosophila S3 Cells;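 for cell number change: cells counted by Cell Tracker Red CMTPX staining in the red channel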
Settings: BODIPY lipid droplet fluorescence, 18-24 h; for cell number change: measured here: cell count max response, cells fed with added oleic acid
Outline: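 Drosophila S3 cells loaded with oleic acid (400 uM, as added) and compounds at several concentrations; lipid droplets imaged by 488-nm laser-scanning cytometry, 500–530 nm intensity and object ratio to cell channel. Percent activity normalized to 20 uM Triacsin C.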

[1] = measured here: lipid fluorescence (Fed channel) AC50, cells fed with added oleic acid
[2] = measured here: cell number channel AC50, cells fed with added oleic acid

Row | SMILES | cell number change | AC50 [1] | AC50 [2]
1 | O=C(COc1ccc(Br)cc1)OCc1nnc(-c2ccccc2)o1 | 3.18% | 0.00461 µM [falling, full curve, poor fit] | 
2 | CSCCC(NC=C1C(=O)OC(C)(C)OC1=O)C(=O)O (stereo unspecified) | 17.2% | 29.1 µM [rising, single point] | 0.82 µM [falling, single point]
3 | CCN1CCN(CCCN(Cc2ccco2)C(=S)Nc2cc(Cl)ccc2C)CC1 | 85% |  | 
4 | O=C(NCC1OCCCN1S(=O)(=O)c1cc(F)ccc1F)C(=O)NC1CCCCCC1 (stereo unspecified) |  | 2.06 µM [falling, partial curve] | 
5 | O=C(Cn1ccc(NC(=O)OCc2ccccc2)nc1=O)NCC1CCCO1 (stereo unspecified) | -4.41% | 1.16 µM [rising, single point] | 
6 | NNc1nc(-c2ccccc2Cl)nc2ccccc12 | -10.6% | 18.4 µM [falling, single point] | 
7 | Cc1n[nH]c(=O)nc1NCCN(C)C | 7.41% |  | 
8 | O=C(NCc1nnc2c(C(F)(F)F)cc(Cl)cn12)c1ccc2c(c1)OCO2 | 10.7% | 0.58 µM [falling, single point] | 
9 | COc1ccccc1-n1cnnc1SCC(=O)Nc1cc(C(C)(C)C)nn1-c1ccccc1 | -28.5% |  | 
10 | CC1(C)Cc2ccccc2/C(=C/C(=O)c2ccccc2)N1 | -27.2% |  | 
11 | CC[C@@]12C(=O)N(c3ccc(C)cc3)C(=O)N1[C@H](c1ccc(Br)cc1)[C@@H]1C(=O)N(C(C)(C)C)C(=O)[C@@H]12 | 28.2% | 0.58 µM [rising, single point] | 
12 | CC(C)(O)c1[nH]c2cc(F)ccc2c1C(C)(C)O | 1.94% | 29.1 µM [rising, single point] | 
13 | CCn1c(SCC(=O)Nc2ccc3c(c2)OCCO3)nnc1-c1ccncc1 | 6.09% |  | 
14 | CCS(=O)(=O)Nc1cccc(-c2cc(-c3ccccc3)c3cc(C)ccc3n2)c1 | -43.1% | 13 µM [falling, partial curve, poor fit] | 11.6 µM [falling, partial curve, poor fit]
15 | Cc1cc(C)c(C#N)c(SCc2nc3ccccc3c(=O)[nH]2)n1 | 18.9% | 0.0366 µM [rising, full curve, poor fit] | 
16 | Cc1nonc1C(=O)N/N=C/c1cccc(O)c1 | -25.2% | 0.0731 µM [falling, full curve, poor fit] | 2.06 µM [falling, full curve, poor fit]
17 | O=S(=O)(NCC1CCCO1)c1ccc(S(=O)(=O)N2CCc3ccccc3C2)cc1 (stereo unspecified) | 34.5% |  | 4.11 µM [rising, partial curve]

Looked up by structure from the entries so far, two records:
Row | SMILES | cell number change | AC50 [1] | AC50 [2]
3 | CCN1CCN(CCCN(Cc2ccco2)C(=S)Nc2cc(Cl)ccc2C)CC1 | 85% |  | 
15 | Cc1cc(C)c(C#N)c(SCc2nc3ccccc3c(=O)[nH]2)n1 | 18.9% | 0.0366 µM [rising, full curve, poor fit] | 
